PubChem BioAssay AID652243 | Drosophila RNAi Screening Center, 2013
In all, the deposit lists about 24,000 reagents; this is a random part of those that have a named target and a result. In the full data, 246 (1%) got an active call. 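Plates not normalised; calls are printed but the firefly/Renilla ratio behind them is not deposited; fold cut for lowering reported inconsistently.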 Raw values vary from plate to plate and are shown uncorrected. Not given: the amount of reagent.

- Assay: 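Fly genes required for human androgen receptor driven transcription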 (primary screen)
- Cell system: Drosophila S2R+ cells
- Reagent: long dsRNA against Drosophila genes
- Duration: 72 h (48 h, then 24 h hormone)
- Conditions: synthetic androgen R1881 at 10 nM for 24 h
- Detection: 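Firefly light from an androgen-responsive reporter and Renilla control light per well, raw and unnormalised, for each of two replicates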
- Reading the numbers: firefly reporter light: higher = more light from androgen-responsive reporter; Renilla control light: higher = more constitutive control signal (cell number, transfection)
- Hit rule: 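Across duplicate plates, a knock-down whose log firefly/Renilla ratio shifted a set fold down or up from the GFP/LacZ control mean was a hit; the downward cut appears as both 1.5 and 3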
- Calls: active = hit: reporter lowered or raised; inactive = no hit

gene | DRSC id | firefly reporter light, replicate 1 | firefly reporter light, replicate 2 | Renilla control light, replicate 1 | Renilla control light, replicate 2 | outcome
ATPsynepsilonL | DRSC14548 | 1.75e5 | 1.38e5 | 2.79e6 | 3.06e6 | inactive
CG3916 | DRSC15520 | 1.13e5 | 1.60e5 | 1.42e6 | 1.39e6 | inactive
CG3916 | DRSC26907 | 3.94e5 | 3.01e5 | 4.72e5 | 3.29e5 | inactive
CG9698 | DRSC16539 | 2.28e5 | 1.75e5 | 2.05e6 | 2.55e6 | inactive
CG12546 | DRSC11676 | 54565 | 46004 | 9.11e5 | 1.13e6 | inactive
GramD1B | DRSC00426 | 1.40e5 | 1.22e5 | 9.20e5 | 7.25e5 | inactive
GramD1B | DRSC00591 | 6.66e5 | 6.54e5 | 8.99e5 | 8.66e5 | inactive
GramD1B | DRSC23885 | 1.13e6 | 8.30e5 | 8.86e5 | 8.52e5 | inactive
GramD1B | DRSC28705 | 2.83e5 | 2.67e5 | 1.11e6 | 1.06e6 | inactive
CG15005 | DRSC08459 | 1.80e5 | 2.30e5 | 2.36e6 | 3.68e6 | inactive
CG15005 | DRSC26556 | 4.89e5 | 4.05e5 | 5.91e5 | 7.76e5 | inactive
Gr64a | DRSC21713 | 5.36e5 | 5.41e5 | 2.53e6 | 3.07e6 | inactive
Treh | DRSC04548 | 7.40e5 | 7.74e5 | 1.59e6 | 1.72e6 | inactive
Treh | DRSC28721 | 3.10e5 | 4.26e5 | 1.13e6 | 1.03e6 | inactive
Ubx | DRSC16891 | 3.47e5 | 4.26e5 | 2.35e6 | 2.80e6 | inactive
Ubx | DRSC23812 | 6.10e5 | 4.29e5 | 1.84e6 | 5.62e5 | inactive
Ubx | DRSC37677 | 5.41e5 | 5.28e5 | 1.90e6 | 1.60e6 | inactive
su(r) | DRSC18705 | 51511 | 39138 | 5.76e5 | 4.39e5 | inactive
CG9416 | DRSC07339 | 66587 | 1.14e5 | 8.26e5 | 1.38e6 | inactive
CG9813 | DRSC16569 | 1.39e5 | 33956 | 5.34e5 | 3.48e5 | inactive
CG9813 | DRSC26207 | 3.03e5 | 2.11e5 | 5.26e5 | 4.36e5 | inactive
gammaTub23C | DRSC00820 | 9.14e5 | 8.33e5 | 2.25e6 | 1.59e6 | inactive
gammaTub23C | DRSC27651 | 6.46e5 | 5.12e5 | 8.38e5 | 6.59e5 | inactive
gammaTub23C | DRSC38953 | 6.00e5 | 5.87e5 | 1.11e6 | 1.20e6 | inactive
Hnf4 | DRSC03344 | 1.21e6 | 1.02e6 | 4.40e6 | 4.34e6 | inactive
Hnf4 | DRSC26864 | 3.24e5 | 3.05e5 | 4.41e5 | 5.75e5 | inactive
CG34431 | DRSC29884 | 3.90e5 | 2.73e5 | 9.77e5 | 8.06e5 | inactive
CG32228 | DRSC22296 | 8.85e5 | 7.82e5 | 1.49e6 | 1.23e6 | inactive
Rrp1 | DRSC00784 | 7.08e5 | 7.24e5 | 1.68e6 | 1.98e6 | inactive
Rrp1 | DRSC26575 | 3.28e5 | 3.19e5 | 7.43e5 | 7.08e5 | inactive
CG12464 | DRSC06156 | 91688 | 91568 | 1.61e6 | 1.61e6 | inactive
D12 | DRSC03311 | 8.14e5 | 1.16e6 | 2.61e6 | 1.51e6 | inactive
CG9173 | DRSC08635 | 1.18e5 | 1.15e5 | 1.31e6 | 1.84e6 | inactive
CG10598 | DRSC19358 | 6.85e5 | 4.99e5 | 3.43e6 | 3.38e6 | inactive
CG10598 | DRSC25200 | 7.80e5 | 8.78e5 | 1.12e6 | 1.29e6 | inactive
CG13331 | DRSC06366 | 58008 | 59387 | 1.26e6 | 1.26e6 | inactive
CG33721 | DRSC37807 | 8.41e5 | 5.66e5 | 2.55e6 | 1.56e6 | inactive
sha | DRSC06331 | 2.15e5 | 1.72e5 | 1.63e6 | 7.03e5 | inactive
Argk1 | DRSC08959 | – | – | – | – | inactive
Argk1 | DRSC09668 | 2.78e5 | 3.09e5 | 3.75e6 | 2.18e6 | inactive
Argk1 | DRSC10460 | 1.12e6 | 6.24e5 | 1.74e6 | 1.12e6 | inactive
Argk1 | DRSC21558 | 7.52e5 | 6.24e5 | 1.35e6 | 1.50e6 | inactive
Argk1 | DRSC22665 | 6.11e5 | 5.73e5 | 1.40e6 | 1.12e6 | inactive
eIF4G1 | DRSC17218 | 70637 | 75397 | 6.59e5 | 5.08e5 | inactive
eIF4G1 | DRSC29786 | 5.25e5 | 4.54e5 | 1.25e6 | 1.18e6 | inactive
CG10646 | DRSC09764 | 4.41e5 | 4.87e5 | 3.02e6 | 3.50e6 | inactive
Plod | DRSC10601 | 1.18e6 | 8.47e5 | 1.27e6 | 1.13e6 | inactive
Plod | DRSC10602 | 2.96e5 | 2.24e5 | 2.70e6 | 1.86e6 | inactive
CG31286 | DRSC26727 | 2.64e5 | 2.48e5 | 8.13e5 | 7.60e5 | inactive
CG30457 | DRSC06661 | 4.49e5 | 6.68e5 | 1.38e6 | 2.45e6 | inactive
CG30457 | DRSC28490 | 4.35e5 | 7.07e5 | 1.38e6 | 2.38e6 | inactive
mthl9 | DRSC08506 | 62697 | 66603 | 1.11e6 | 1.04e6 | inactive
CG9825 | DRSC04569 | 3.57e5 | 3.76e5 | 1.94e6 | 1.81e6 | inactive
CG9825 | DRSC25634 | 1.48e6 | 1.51e6 | 1.55e6 | 1.40e6 | inactive
CG31705 | DRSC01991 | 4.64e5 | 5.68e5 | 9.92e5 | 1.36e6 | inactive
CG31705 | DRSC30021 | 6.06e5 | 3.93e5 | 8.32e5 | 9.65e5 | inactive
CG3581 | DRSC15499 | 2.16e5 | 2.27e5 | 2.67e6 | 3.32e6 | inactive
hrg | DRSC07502 | 52684 | 1.50e5 | 6.94e5 | 1.23e6 | inactive
CG15611 | DRSC06563 | 5.83e5 | 7.93e5 | 5.66e5 | 1.09e6 | inactive
CG15611 | DRSC06564 | 72398 | 78462 | 1.37e6 | 1.37e6 | inactive
CG12926 | DRSC06239 | 5.57e5 | 5.46e5 | 2.48e6 | 2.15e6 | inactive
CG12926 | DRSC21930 | 1.02e6 | 9.80e5 | 1.41e6 | 1.44e6 | inactive
GAPsec | DRSC10564 | 9.33e5 | 7.25e5 | 1.33e6 | 1.73e6 | inactive
GAPsec | DRSC26128 | 3.54e5 | 3.26e5 | 5.56e5 | 5.99e5 | inactive
Cyp49a1 | DRSC06737 | 1.77e5 | 1.84e5 | 1.70e6 | 1.28e6 | inactive
Cyp49a1 | DRSC07367 | 3.99e5 | 3.14e5 | 2.56e6 | 2.08e6 | inactive
Arp5 | DRSC16350 | 48679 | 63038 | 2.99e5 | 2.19e5 | inactive
Arp5 | DRSC28688 | 4.62e5 | 4.14e5 | 1.46e6 | 1.24e6 | inactive
CG12880 | DRSC14568 | 78622 | 88540 | 5.90e5 | 5.81e5 | inactive
CG13551 | DRSC21847 | 5.90e5 | 4.79e5 | 1.03e6 | 8.03e5 | inactive
CG32107 | DRSC09221 | 2.42e5 | 99599 | 5.71e5 | 2.99e5 | inactive
Tmem63 | DRSC06063 | 2.79e5 | 2.26e5 | 1.32e6 | 9.46e5 | inactive
Tmem63 | DRSC27402 | 1.98e5 | 1.89e5 | 6.28e5 | 4.65e5 | inactive
CG10822 | DRSC06005 | 50223 | 59462 | 7.59e5 | 7.63e5 | inactive
